Assay results reported in article PMC7692546.

Biological target: T1, Human cathepsin K (human) (UniProt P43235)
T1 sequence: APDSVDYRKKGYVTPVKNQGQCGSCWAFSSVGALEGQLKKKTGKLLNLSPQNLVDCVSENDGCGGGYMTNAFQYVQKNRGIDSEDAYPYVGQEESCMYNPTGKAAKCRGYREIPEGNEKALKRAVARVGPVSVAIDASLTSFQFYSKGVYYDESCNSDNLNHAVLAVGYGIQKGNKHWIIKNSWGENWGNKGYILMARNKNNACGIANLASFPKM
Experiment: enzyme inhibition (fluorogenic peptide substrate); KT inhibitor (2 μM) incubated with each protease in 100 μl reaction buffer for 15 min at 37 °C, then fluorogenic substrate; inhibition constants by the Morrison equation for tight-binding inhibition; both purified

In the case of “Recombinant FhKT1.1 (Fasciola hepatica Kunitz-type inhibitor 1.1)”, the binding is reported as “binds”.

Results are given in words; binding and its absence hold for the method and conditions named. Binding calls can cover weak binding; strength is not graded here.
